Reference: patent publication US7906556B2, “Methods of treating amyloidosis using cyclopropyl derivative aspartyl protease inhibitors” (Elan Pharmaceuticals, Inc., priority 2005, dated 2011)

Conditions: CF-1 mice, 10 μmol/kg IV tail vein, non-perfused brain corrected for plasma volume

Structure (SMILES): CN1C(=O)CN=C(c2ccccc2)c2cc(Cl)ccc21 [Diazepam]
- concentration level in the brain at 5 min (5 min post dose): 5481 nM
- concentration level in the brain at 60 min (60 min post dose): 176 nM
